Holding throughout (test): co-IP; tagged proteins co-expressed in S2 cells; lysis in 25 mM Tris pH 8, 150 mM NaCl, 5% glycerol, 1% triton at 4°C; IP with rabbit anti-GFP (Venus-Unk) or rabbit anti-FLAG, Protein G agarose; immunoblot with anti-GFP and anti-FLAG M2
In one test the target is T1, Venus-Unk (Drosophila) (UniProt Q86B79).
T1 sequence: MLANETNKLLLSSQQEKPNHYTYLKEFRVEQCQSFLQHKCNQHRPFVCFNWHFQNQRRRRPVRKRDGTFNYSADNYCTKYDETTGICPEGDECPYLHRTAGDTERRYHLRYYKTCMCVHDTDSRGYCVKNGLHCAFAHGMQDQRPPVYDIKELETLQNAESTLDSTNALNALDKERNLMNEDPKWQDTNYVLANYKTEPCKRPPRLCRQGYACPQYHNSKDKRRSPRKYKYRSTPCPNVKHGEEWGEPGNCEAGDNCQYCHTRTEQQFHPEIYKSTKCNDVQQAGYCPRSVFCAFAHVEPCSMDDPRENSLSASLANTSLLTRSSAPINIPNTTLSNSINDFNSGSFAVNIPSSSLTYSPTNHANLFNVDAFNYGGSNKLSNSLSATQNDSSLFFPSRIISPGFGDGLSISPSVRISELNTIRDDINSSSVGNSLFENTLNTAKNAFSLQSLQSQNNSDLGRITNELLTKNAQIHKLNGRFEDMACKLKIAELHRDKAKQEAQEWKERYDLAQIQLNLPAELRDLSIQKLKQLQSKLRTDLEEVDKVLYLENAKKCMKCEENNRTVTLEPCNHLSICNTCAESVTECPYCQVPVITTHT

Another test addresses FLAG-D-Pax2 (Drosophila).
The target of another test is FLAG-HdcS (Drosophila) (UniProt Q9N2M8).

These are yes or no findings as the source states them, for the method shown. In cells and extracts the contact can be indirect. Binding can be weak; no strength is given.

Regarding FLAG-HdcS (from UniProt Q9N2M8), the binding entry in the test with Venus-Unk (Drosophila) was “binds”.

B1: Venus-Unk (protein, UniProt Q86B79 1-599)
chain: MLANETNKLLLSSQQEKPNHYTYLKEFRVEQCQSFLQHKCNQHRPFVCFNWHFQNQRRRRPVRKRDGTFNYSADNYCTKYDETTGICPEGDECPYLHRTAGDTERRYHLRYYKTCMCVHDTDSRGYCVKNGLHCAFAHGMQDQRPPVYDIKELETLQNAESTLDSTNALNALDKERNLMNEDPKWQDTNYVLANYKTEPCKRPPRLCRQGYACPQYHNSKDKRRSPRKYKYRSTPCPNVKHGEEWGEPGNCEAGDNCQYCHTRTEQQFHPEIYKSTKCNDVQQAGYCPRSVFCAFAHVEPCSMDDPRENSLSASLANTSLLTRSSAPINIPNTTLSNSINDFNSGSFAVNIPSSSLTYSPTNHANLFNVDAFNYGGSNKLSNSLSATQNDSSLFFPSRIISPGFGDGLSISPSVRISELNTIRDDINSSSVGNSLFENTLNTAKNAFSLQSLQSQNNSDLGRITNELLTKNAQIHKLNGRFEDMACKLKIAELHRDKAKQEAQEWKERYDLAQIQLNLPAELRDLSIQKLKQLQSKLRTDLEEVDKVLYLENAKKCMKCEENNRTVTLEPCNHLSICNTCAESVTECPYCQVPVITTHT
B1: the binding entry with FLAG-D-Pax2 (Drosophila) and in the test with FLAG-HdcS (Drosophila) was “binds” in each case.

Source of the values: paper PMC4161320.
